# Laboratory results: PubChem BioAssay AID1224828 (NIAID, 2016)
# Assay: 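Find genes required for NF-kappaB p65 moving into the nucleus after LPS in mouse macrophages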 (primary screen)
# Cell system: mouse RAW264.7 G9 macrophage reporter cells (GFP-p65, Tnf promoter-mCherry)
# Knock-down reagent: siRNA pool against mouse genes, 100 nM
# Timing: 2 days siRNA transfection, then 40 min LPS before fixation
# Conditions: LPS (Salmonella minnesota R595) at 10 ng/ml
# Measurement: 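Imaged p65 nuclear translocation ratio, normalised to the plate median, converted to robust z-scores and averaged across two replicates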
# Scale: p65 translocation robust z-score: higher = more nuclear NF-kappaB p65 after LPS than the plate median; nuclear/cytoplasmic p65 ratio: higher = more nuclear NF-kappaB p65
# Call rule: 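Active if robust z is above 3.3 (negative regulators) or below -1.56, the Tlr4 control median (positive regulators); activity score 50 or more; control wells not called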
# Meaning of the calls: active = hit (p65 shift raised or lowered); inactive = no clear change
# In all, the deposit lists about 17,000 reagents; below is a random part of them. In the full data, 762 (4.5%) got an active call. 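Active calls include both raised and lowered p65 entry, mostly lowered; wells with fewer than 50 cells lack a z-score.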 Raw values are not corrected between plates. A reagent listed more than once was tested more than once; the source does not tell the runs apart.
gene,p65 translocation robust z-score,"nuclear/cytoplasmic p65 ratio, rep 1","nuclear/cytoplasmic p65 ratio, rep 2",low cell count flag,outcome
Gmip,-0.76,1.59,1.45,enough cells to score,inactive
Slc35f2,-1,1.3,1.14,enough cells to score,inactive
Orm1,-0.06,1.44,1.23,enough cells to score,inactive
Rrp12,-0.26,1.29,1.55,enough cells to score,inactive
Smu1,-0.24,1.21,1.2,enough cells to score,inactive
Cep250,0.94,1.54,1.5,enough cells to score,inactive
Gapvd1,,1.27,1.37,fewer than 50 cells per well; well left out of scoring,inactive
Eif1,-1.81,1.16,1.05,enough cells to score,active
Calr3,0.54,1.72,1.82,enough cells to score,inactive
Ifna13,,1.41,1.43,fewer than 50 cells per well; well left out of scoring,inactive
Gpr173,1.72,1.74,1.98,enough cells to score,inactive
Gpr173,,1.32,1.18,fewer than 50 cells per well; well left out of scoring,inactive
Babam1,-0.89,1.25,1.29,enough cells to score,inactive
Or4f7,-1.13,1.44,1.15,enough cells to score,inactive
Fancc,1.42,1.67,1.54,enough cells to score,inactive

Sorted by “nuclear/cytoplasmic p65 ratio, rep 1” (descending): 6 of the entries above.
gene,p65 translocation robust z-score,"nuclear/cytoplasmic p65 ratio, rep 1","nuclear/cytoplasmic p65 ratio, rep 2",low cell count flag,outcome
Gpr173,1.72,1.74,1.98,enough cells to score,inactive
Calr3,0.54,1.72,1.82,enough cells to score,inactive
Cep250,0.94,1.54,1.5,enough cells to score,inactive
Ifna13,,1.41,1.43,fewer than 50 cells per well; well left out of scoring,inactive
Gapvd1,,1.27,1.37,fewer than 50 cells per well; well left out of scoring,inactive
Eif1,-1.81,1.16,1.05,enough cells to score,active

Further records follow:
gene,p65 translocation robust z-score,"nuclear/cytoplasmic p65 ratio, rep 1","nuclear/cytoplasmic p65 ratio, rep 2",low cell count flag,outcome
Fndc7,0.75,1.58,1.44,enough cells to score,inactive
Ctsk,-1.36,1.41,1.19,enough cells to score,inactive
Ube2c,-0.54,1.42,1.44,enough cells to score,inactive
Kcna4,-1.98,1.25,1.09,enough cells to score,active
Exoc3l2,1.79,1.56,1.74,enough cells to score,inactive
Rpl23a,,1.31,1.5,fewer than 50 cells per well; well left out of scoring,inactive
Gjb6,-1.11,1.23,1.28,enough cells to score,inactive
Dlg2,0.82,1.87,1.45,enough cells to score,inactive
Ptpro,0.22,1.62,1.48,enough cells to score,inactive
Scfd2,0.96,1.55,1.32,enough cells to score,inactive
Or8k1,1.09,1.84,1.73,enough cells to score,inactive
Bace2,0.98,1.68,2.06,enough cells to score,inactive
Frg1,0.76,1.73,1.54,enough cells to score,inactive
1110004F10Rik,0.79,1.58,1.62,enough cells to score,inactive
Mobp,1.68,2.06,1.84,enough cells to score,inactive
Igfbp1,-0.44,1.32,1.37,enough cells to score,inactive
Mrpl15,0.23,1.81,1.64,enough cells to score,inactive
Htr4,-0.9,1.39,1.44,enough cells to score,inactive
Rps19bp1,,1.23,1.11,fewer than 50 cells per well; well left out of scoring,inactive
Gba1,1.3,1.58,1.56,enough cells to score,inactive
Cyp21a1,0.14,1.56,1.34,enough cells to score,inactive
Ptpn1,-0.48,1.48,1.3,enough cells to score,inactive
Capn6,0.06,1.62,1.77,enough cells to score,inactive
Clns1a,-0.07,1.61,1.74,enough cells to score,inactive
Kcnk3,1.12,1.64,1.51,enough cells to score,inactive
